{"source": "PubChem BioAssay AID1159578 – Peter MacCallum Cancer Centre | 2015", "aim": "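siRNA pools altering how lymphatic endothelial cells close a scratch wound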 (primary screen)", "cell system": "human lymphatic endothelial cells", "reagents": "siRNA pool against human genes, 40 nM", "duration": "48 h after transfection", "read-out": "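High-content imaging of dye-stained cells in a scratch assay measures filled wound area and nuclei per well; duplicate means given as ratio to mock and robust z-score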", "reading the numbers": "migration robust z-score: higher = faster migration into the scratch; nuclei per well: higher = more cells in the well", "active means": "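Pools averaging fewer than 3300 nuclei are never called; remaining pools count as changed when migration robust z lies outside -2 to 2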", "meaning of the calls": "active = migration changed; inactive = no migration change, or too few cells", "note": "Shown is a random part of about 18,000 deposited reagents. About 1,030 of them (5.7%) were called active. 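Inactive calls also include pools with fewer than 3300 nuclei, whose migration was not assessed.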 The raw values are shown without normalisation. Further read-outs or replicates are left out here. Reagent sequences are not shown."}
{"target": "INPP4A (inositol polyphosphate-4-phosphatase type I A)", "migration robust z-score": -0.08, "nuclei per well, duplicate mean": 6146, "call": "inactive"}
{"target": "OFCC1 (orofacial cleft 1 candidate 1 (pseudogene))", "migration robust z-score": -2.12, "nuclei per well, duplicate mean": 4433, "call": "active"}
{"target": "HEMGN (hemogen)", "migration robust z-score": -2.09, "nuclei per well, duplicate mean": 3756, "call": "active"}
{"target": "PFDN4 (prefoldin subunit 4)", "migration robust z-score": 0.26, "nuclei per well, duplicate mean": 5800, "call": "inactive"}
{"target": "WDFY1 (WD repeat and FYVE domain containing 1)", "migration robust z-score": 0.65, "nuclei per well, duplicate mean": 5842, "call": "inactive"}
{"target": "DPEP2 (dipeptidase 2)", "migration robust z-score": -0.29, "nuclei per well, duplicate mean": 5094, "call": "inactive"}
{"target": "TMEM63C (transmembrane protein 63C)", "migration robust z-score": -2.32, "nuclei per well, duplicate mean": 4602, "call": "active"}
{"target": "LSM2", "migration robust z-score": -0.04, "nuclei per well, duplicate mean": 5605, "call": "inactive"}
{"target": "FLJ46838 (retired record)", "migration robust z-score": 0.09, "nuclei per well, duplicate mean": 7019, "call": "inactive"}
{"target": "BAHCC1 (BAH domain and coiled-coil containing 1)", "migration robust z-score": -0.02, "nuclei per well, duplicate mean": 6138, "call": "inactive"}
{"target": "EXOC4 (exocyst complex component 4)", "migration robust z-score": 0.48, "nuclei per well, duplicate mean": 6680, "call": "inactive"}
{"target": "RLIG1 (RNA 5'-phosphate and 3'-OH ligase 1)", "migration robust z-score": -0.63, "nuclei per well, duplicate mean": 5596, "call": "inactive"}
{"target": "DDX19B (DEAD-box helicase 19B)", "migration robust z-score": 0.75, "nuclei per well, duplicate mean": 5333, "call": "inactive"}
{"target": "CCDC89 (coiled-coil domain containing 89)", "migration robust z-score": 0.71, "nuclei per well, duplicate mean": 5832, "call": "inactive"}
{"target": "CDKL5 (cyclin dependent kinase like 5)", "migration robust z-score": -2.39, "nuclei per well, duplicate mean": 4294, "call": "active"}
{"target": "STOML2 (stomatin like 2)", "migration robust z-score": -0.93, "nuclei per well, duplicate mean": 6097, "call": "inactive"}
{"target": "ETNK1 (ethanolamine kinase 1)", "migration robust z-score": -0.52, "nuclei per well, duplicate mean": 7384, "call": "inactive"}
{"target": "RCN3 (reticulocalbin 3)", "migration robust z-score": -1.66, "nuclei per well, duplicate mean": 5178, "call": "inactive"}
{"target": "PSMB3 (proteasome 20S subunit beta 3)", "migration robust z-score": -0.42, "nuclei per well, duplicate mean": 4840, "call": "inactive"}
{"target": "PPP2CB (protein phosphatase 2 catalytic subunit beta)", "migration robust z-score": 0.03, "nuclei per well, duplicate mean": 4945, "call": "inactive"}
{"target": "PNLDC1 (PARN like ribonuclease domain containing exonuclease 1)", "migration robust z-score": 0.9, "nuclei per well, duplicate mean": 5921, "call": "inactive"}

3 of these entries, reformatted.
target,migration robust z-score,"nuclei per well, duplicate mean",call
TMEM63C (transmembrane protein 63C),-2.32,4602,active
LSM2,-0.04,5605,inactive
FLJ46838 (retired record),0.09,7019,inactive
